Reference: the supplement of paper PMC12595434, “Development of retinoid nuclear receptor pathway antagonists through targeting aldehyde dehydrogenase 1A3” (iScience, 2025)
Some of the results follow. The data scatter; read single values as rough.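 Many melting curves are irregular; where none melted, Tm was taken as 64 °C.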

What was measured:
HSP90AA1 = HSP90AA1 (UniProt P07900); test: melting temperature shift (DMSO Tm minus MBE1-treated Tm) in cellular thermal proteome profiling; higher = less thermal stabilization by MBE1 (negative = stabilized by MBE1); settings: A375
UniProt P13637 = test: as above; settings: A375

CCc1cnccc1C(=O)Nc1cc2c(cc1F)NC(=O)CC2
melting temperature shift (HSP90AA1; MBE1 concentration: 100 nM): -0.55 °C | melting temperature shift (HSP90AA1; MBE1 concentration: 1 uM): -0.214 °C | melting temperature shift (UniProt P13637; MBE1 concentration: 100 nM): -1.23 °C | melting temperature shift (UniProt P13637; MBE1 concentration: 1 uM): 0.0183 °C
